PubChem BioAssay AID1224828 | NIAID, 2016
Screen: 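Find genes required for NF-kappaB p65 moving into the nucleus after LPS in mouse macrophages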 (primary screen). System: mouse RAW264.7 G9 macrophage reporter cells (GFP-p65, Tnf promoter-mCherry). Knock-down reagent: siRNA pool against mouse genes, 100 nM. Time to read-out: 2 days siRNA transfection, then 40 min LPS before fixation. Conditions: LPS (Salmonella minnesota R595) at 10 ng/ml. Detection: 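Microscopy ratio of nuclear to perinuclear-ring GFP-p65 signal, scaled to the plate median; gene score is the average of two replicate robust z-scores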. Scale: p65 translocation robust z-score: higher = more nuclear NF-kappaB p65 after LPS than the plate median; nuclear/cytoplasmic p65 ratio: higher = more nuclear NF-kappaB p65. Call rule: 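Active if robust z is above 3.3 (negative regulators) or below -1.56, the Tlr4 control median (positive regulators); activity score 50 or more; control wells not called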. Meaning of the calls: active = hit (p65 shift raised or lowered); inactive = no clear change.
Here is one part, drawn at random, of about 17,000 deposited reagents. 762 of all reagents (4.5%) were called active. 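Active calls include both raised and lowered p65 entry, mostly lowered; wells with fewer than 50 cells lack a z-score.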 Raw values are not corrected between plates. Reagent sequences are not shown.

target gene	p65 translocation robust z-score	nuclear/cytoplasmic p65 ratio, rep 1	nuclear/cytoplasmic p65 ratio, rep 2	low cell count flag	Call
Bok	0.34	1.72	1.61	enough cells to score	inactive
Chrac1	0.22	1.49	1.41	enough cells to score	inactive
2510039O18Rik	-0.39	1.27	1.41	enough cells to score	inactive
Spcs1	-0.85	1.31	1.28	enough cells to score	inactive
Morn4	0.71	1.59	2.07	enough cells to score	inactive
Clip1	-1.19	1.36	1.35	enough cells to score	inactive
Olfm3	0.44	1.71	1.66	enough cells to score	inactive
Trim11		1.25	1.2	fewer than 50 cells per well; well left out of scoring	inactive
Spef1	0.74	1.51	1.94	enough cells to score	inactive
Nedd8	-0.81	1.25	1.32	enough cells to score	inactive
Tmem270	-1.22	1.37	1.26	enough cells to score	inactive
Vmn1r67	0.05	1.3	1.23	enough cells to score	inactive
Slurp1		1.23	1.17	fewer than 50 cells per well; well left out of scoring	inactive
Fcer1g	-1.6	1.38	1.16	enough cells to score	active
Ce9	1.13	1.79	1.8	enough cells to score	inactive
Dnajc4	1.86	1.78	1.54	enough cells to score	inactive
Mindy2	-0.62	1.5	1.43	enough cells to score	inactive
Tmem167	0.99	1.61	1.65	enough cells to score	inactive
Slc4a9		1.35	1.44	fewer than 50 cells per well; well left out of scoring	inactive
Mucl2	2.87	1.87	1.49	enough cells to score	inactive
Itch	-0.01	1.37	1.47	enough cells to score	inactive
Fam3d	2.03	2.01	1.84	enough cells to score	inactive
Shank3	-0.09	1.54	1.54	enough cells to score	inactive
Tas2r120		1.23	1.23	fewer than 50 cells per well; well left out of scoring	inactive

A run of entries taken from the entries so far, as a working copy:
target gene	p65 translocation robust z-score	nuclear/cytoplasmic p65 ratio, rep 1	nuclear/cytoplasmic p65 ratio, rep 2	low cell count flag	Call
Mucl2	2.87	1.87	1.49	enough cells to score	inactive
Itch	-0.01	1.37	1.47	enough cells to score	inactive
